Measured values taken from patent US20260183304A1, “COMBINATION OF A TYROSINE KINASE INHIBITOR AND A PRO-INFLAMMATORY AGENT FOR TREATING CANCER” (MDX Management LLC, priority 2022, published 2026).
For at least one compound, name, drawing or mass did not settle the structure.

Tested on: SIRPα
Assay: SIRPα ITIMs phosphorylation and SHP-1 association in macrophages activated by proinflammatory stimuli
Format: cell-based
Conditions: macrophage activation by proinflammatory stimuli or cancer therapies
Description: As shown, proinflammatory stimuli (TLR agonists, proinflammatory cytokines IL-1β, IL-6, IL-12, IL-17, IL-18, TNFα, IFNγ, etc., and cancer therapies) induce SIRPα ITIMs phosphorylation and exclusive association of SHP-1 (not SHP-2). Anti-inflammatory cytokine stimulation also induces SIRPα ITIMs phosphorylation but association with SHP-2.

## Cc1ccc(NC(=O)c2ccc(CN3CC[C@H](N(C)C)C3)c(C(F)(F)F)c2)cc1Nc1nccc(-c2cncnc2)n1 [bafetinib]
  SIRPα cytoplasmic ITIMs phosphorylation and SIRPα association with SHP-1: only minor effect
